From article PMC4439739
These are yes or no findings as the source states them, for the method shown. Binding seen in cells or lysates may run through a third protein. Here binding means that the protein was enriched with, or labelled near, the bait; the list need not be complete. Where a sequence is shown, tags or fusion partners need not be part of it.

By UniProt entry, the sequences of proteins in these tests, tags left out.
UniProt Q5XKP0: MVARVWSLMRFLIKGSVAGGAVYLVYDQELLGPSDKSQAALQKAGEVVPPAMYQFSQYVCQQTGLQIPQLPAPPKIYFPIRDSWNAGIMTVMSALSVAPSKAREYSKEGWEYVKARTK

Legend:
[1] = target: T1, MIC19 C-terminally tagged with HA-FLAG (human) (UniProt Q9NX63); assay: affinity purification with mass spectrometry; validation: baits MIC60, MTX2 and MIC19 (HA-FLAG) expressed in HCT116 cells, immunopurified with α-HA; CompPASS scoring
T1 sequence: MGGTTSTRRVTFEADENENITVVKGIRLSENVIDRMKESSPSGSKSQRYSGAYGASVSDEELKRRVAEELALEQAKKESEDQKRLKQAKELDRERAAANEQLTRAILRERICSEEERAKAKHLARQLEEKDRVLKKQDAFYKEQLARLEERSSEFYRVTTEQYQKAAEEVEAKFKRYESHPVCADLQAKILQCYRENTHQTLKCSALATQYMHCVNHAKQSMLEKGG

[2] = target: T2, MIC60 C-terminally tagged with HA-FLAG (human) (UniProt Q16891); assay: as above
T2 sequence: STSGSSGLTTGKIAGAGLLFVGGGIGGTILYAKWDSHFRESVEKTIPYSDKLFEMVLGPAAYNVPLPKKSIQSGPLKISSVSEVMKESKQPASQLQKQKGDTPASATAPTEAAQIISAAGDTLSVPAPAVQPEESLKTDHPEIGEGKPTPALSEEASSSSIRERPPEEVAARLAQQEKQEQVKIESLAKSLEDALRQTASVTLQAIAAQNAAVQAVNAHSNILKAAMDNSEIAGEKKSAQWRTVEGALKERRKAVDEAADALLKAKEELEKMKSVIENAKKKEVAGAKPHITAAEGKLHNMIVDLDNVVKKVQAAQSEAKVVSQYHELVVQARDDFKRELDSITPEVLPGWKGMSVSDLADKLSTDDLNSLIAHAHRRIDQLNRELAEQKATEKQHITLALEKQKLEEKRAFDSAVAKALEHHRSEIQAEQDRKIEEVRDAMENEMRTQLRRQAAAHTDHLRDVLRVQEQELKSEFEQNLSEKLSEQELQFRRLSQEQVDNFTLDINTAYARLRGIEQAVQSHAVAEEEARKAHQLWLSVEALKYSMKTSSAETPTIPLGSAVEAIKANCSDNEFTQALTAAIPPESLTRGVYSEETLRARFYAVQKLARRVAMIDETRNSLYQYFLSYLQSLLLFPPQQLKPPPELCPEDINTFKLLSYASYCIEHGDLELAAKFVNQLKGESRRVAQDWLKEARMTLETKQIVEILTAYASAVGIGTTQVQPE

[3] = target: T3, MTX2 C-terminally tagged with HA-FLAG (human) (UniProt O75431); assay: as above
T3 sequence: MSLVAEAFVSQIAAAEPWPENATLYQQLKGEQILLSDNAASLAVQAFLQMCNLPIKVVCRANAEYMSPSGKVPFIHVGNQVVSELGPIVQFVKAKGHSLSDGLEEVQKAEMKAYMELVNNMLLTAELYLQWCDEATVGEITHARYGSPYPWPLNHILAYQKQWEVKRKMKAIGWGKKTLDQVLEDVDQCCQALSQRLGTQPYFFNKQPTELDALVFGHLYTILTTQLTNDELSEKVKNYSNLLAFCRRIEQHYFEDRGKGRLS

[4] = target: T1, MIC19 C-terminally tagged with HA-FLAG (human); assay: affinity purification with mass spectrometry; C-terminally HA-FLAG-tagged baits stably expressed in 293T cells; lysis in 1% digitonin; purified on α-FLAG beads; complexes trypsinized; CompPASS scoring (network of Figure 1B)
[5] = target: T2, MIC60 C-terminally tagged with HA-FLAG (human); assay: as above
[6] = target: T3, MTX2 C-terminally tagged with HA-FLAG (human); assay: as above
[7] = target: T4, MIC27 C-terminally tagged with HA-FLAG (human) (UniProt Q6UXV4); assay: as above
T4 sequence: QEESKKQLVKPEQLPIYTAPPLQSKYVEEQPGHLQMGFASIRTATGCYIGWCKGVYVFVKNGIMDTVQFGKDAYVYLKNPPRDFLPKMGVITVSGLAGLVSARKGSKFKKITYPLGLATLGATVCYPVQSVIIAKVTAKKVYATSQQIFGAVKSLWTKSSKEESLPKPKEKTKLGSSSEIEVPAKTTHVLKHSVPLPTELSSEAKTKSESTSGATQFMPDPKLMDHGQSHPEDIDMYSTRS

Measured: binding

QIL1 (C19orf70), endogenous (from UniProt Q5XKP0 1-118)
binds: all assays above
